The supplement of paper PMC10849652
The list shows a part of the results.

Chains of the proteins cited; added tags and fusions are not shown. Lines headed by an entry give the natural chain unless they say otherwise; changes in a name come on top.
UniProt Q8NBF6: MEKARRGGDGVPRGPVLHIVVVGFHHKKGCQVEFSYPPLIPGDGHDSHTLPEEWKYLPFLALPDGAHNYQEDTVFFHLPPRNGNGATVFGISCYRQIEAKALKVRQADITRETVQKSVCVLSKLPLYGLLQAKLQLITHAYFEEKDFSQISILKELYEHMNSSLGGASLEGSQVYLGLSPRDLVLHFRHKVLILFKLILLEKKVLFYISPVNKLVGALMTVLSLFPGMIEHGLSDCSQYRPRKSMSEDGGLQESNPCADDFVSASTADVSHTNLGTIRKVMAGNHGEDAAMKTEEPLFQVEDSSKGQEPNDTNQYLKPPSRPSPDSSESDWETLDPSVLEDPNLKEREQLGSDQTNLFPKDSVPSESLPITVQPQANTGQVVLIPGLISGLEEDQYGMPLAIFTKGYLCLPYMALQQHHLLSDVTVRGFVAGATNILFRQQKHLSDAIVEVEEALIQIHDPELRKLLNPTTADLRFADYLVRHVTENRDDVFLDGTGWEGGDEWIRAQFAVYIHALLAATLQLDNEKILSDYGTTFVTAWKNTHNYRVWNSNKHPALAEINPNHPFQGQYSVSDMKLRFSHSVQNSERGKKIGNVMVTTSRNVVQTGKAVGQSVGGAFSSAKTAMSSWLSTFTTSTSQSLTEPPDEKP
UniProt P56385: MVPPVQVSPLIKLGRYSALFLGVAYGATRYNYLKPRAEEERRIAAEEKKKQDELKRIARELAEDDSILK
UniProt P56378: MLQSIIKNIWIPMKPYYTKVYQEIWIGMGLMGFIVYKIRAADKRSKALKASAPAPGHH
UniProt P18859: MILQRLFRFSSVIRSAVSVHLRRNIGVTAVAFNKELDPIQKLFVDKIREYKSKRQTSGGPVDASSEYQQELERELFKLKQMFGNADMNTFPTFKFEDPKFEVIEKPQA
UniProt Q9HD20: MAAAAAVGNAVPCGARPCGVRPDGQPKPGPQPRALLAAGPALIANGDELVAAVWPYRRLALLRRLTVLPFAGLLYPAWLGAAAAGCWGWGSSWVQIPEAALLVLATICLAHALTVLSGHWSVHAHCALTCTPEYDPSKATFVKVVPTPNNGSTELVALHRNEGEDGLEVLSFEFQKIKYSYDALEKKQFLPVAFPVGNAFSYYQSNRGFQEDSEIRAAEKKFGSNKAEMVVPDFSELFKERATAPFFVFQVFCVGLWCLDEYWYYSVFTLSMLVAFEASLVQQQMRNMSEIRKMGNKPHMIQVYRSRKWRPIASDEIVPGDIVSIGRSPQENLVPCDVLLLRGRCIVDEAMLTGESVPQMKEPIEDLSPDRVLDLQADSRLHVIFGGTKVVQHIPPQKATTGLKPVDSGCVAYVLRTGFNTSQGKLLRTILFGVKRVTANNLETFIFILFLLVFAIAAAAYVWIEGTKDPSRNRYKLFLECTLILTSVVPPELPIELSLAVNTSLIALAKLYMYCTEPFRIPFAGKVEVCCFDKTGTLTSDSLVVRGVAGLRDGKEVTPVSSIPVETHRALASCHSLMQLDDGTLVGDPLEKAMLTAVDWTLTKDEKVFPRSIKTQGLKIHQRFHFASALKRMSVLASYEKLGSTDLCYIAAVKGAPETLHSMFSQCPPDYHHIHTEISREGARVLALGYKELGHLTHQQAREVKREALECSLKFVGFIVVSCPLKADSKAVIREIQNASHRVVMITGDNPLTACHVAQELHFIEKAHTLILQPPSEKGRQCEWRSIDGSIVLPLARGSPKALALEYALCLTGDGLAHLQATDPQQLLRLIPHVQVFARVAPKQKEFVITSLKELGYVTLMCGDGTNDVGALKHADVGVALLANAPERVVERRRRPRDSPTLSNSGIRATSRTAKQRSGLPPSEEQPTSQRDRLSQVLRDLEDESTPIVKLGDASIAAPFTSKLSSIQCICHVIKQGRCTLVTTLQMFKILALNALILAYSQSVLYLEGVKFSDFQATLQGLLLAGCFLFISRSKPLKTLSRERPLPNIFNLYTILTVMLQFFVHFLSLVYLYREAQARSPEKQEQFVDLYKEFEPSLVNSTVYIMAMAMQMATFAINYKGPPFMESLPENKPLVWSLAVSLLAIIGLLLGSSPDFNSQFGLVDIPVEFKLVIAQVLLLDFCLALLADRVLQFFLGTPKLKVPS
UniProt Q00973: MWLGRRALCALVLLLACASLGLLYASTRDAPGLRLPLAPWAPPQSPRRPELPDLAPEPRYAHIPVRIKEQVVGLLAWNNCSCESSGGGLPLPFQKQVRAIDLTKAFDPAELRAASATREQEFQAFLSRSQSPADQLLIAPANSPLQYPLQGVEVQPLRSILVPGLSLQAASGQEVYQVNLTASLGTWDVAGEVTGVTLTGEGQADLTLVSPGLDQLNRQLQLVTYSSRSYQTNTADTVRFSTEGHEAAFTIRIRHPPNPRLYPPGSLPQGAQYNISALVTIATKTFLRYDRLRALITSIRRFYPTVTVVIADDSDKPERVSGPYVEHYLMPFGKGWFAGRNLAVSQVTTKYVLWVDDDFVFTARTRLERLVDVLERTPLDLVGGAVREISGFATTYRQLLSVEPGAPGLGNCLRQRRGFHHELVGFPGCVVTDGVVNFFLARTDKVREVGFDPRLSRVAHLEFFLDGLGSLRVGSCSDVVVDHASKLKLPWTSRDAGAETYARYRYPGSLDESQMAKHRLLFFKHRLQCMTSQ
UniProt Q14CW9: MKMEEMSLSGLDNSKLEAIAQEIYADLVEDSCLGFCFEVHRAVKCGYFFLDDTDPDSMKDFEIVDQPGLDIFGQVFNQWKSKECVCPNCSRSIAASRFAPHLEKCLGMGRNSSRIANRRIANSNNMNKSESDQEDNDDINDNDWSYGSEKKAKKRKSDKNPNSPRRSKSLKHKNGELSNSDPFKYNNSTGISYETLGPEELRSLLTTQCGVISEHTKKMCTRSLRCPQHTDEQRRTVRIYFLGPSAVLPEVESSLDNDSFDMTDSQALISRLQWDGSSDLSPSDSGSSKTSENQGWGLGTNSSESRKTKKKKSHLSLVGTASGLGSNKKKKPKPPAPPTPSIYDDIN
UniProt B2RBV5: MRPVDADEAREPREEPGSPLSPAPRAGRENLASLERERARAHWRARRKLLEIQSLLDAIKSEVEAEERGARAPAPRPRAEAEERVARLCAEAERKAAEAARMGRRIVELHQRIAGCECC
UniProt Q676U5: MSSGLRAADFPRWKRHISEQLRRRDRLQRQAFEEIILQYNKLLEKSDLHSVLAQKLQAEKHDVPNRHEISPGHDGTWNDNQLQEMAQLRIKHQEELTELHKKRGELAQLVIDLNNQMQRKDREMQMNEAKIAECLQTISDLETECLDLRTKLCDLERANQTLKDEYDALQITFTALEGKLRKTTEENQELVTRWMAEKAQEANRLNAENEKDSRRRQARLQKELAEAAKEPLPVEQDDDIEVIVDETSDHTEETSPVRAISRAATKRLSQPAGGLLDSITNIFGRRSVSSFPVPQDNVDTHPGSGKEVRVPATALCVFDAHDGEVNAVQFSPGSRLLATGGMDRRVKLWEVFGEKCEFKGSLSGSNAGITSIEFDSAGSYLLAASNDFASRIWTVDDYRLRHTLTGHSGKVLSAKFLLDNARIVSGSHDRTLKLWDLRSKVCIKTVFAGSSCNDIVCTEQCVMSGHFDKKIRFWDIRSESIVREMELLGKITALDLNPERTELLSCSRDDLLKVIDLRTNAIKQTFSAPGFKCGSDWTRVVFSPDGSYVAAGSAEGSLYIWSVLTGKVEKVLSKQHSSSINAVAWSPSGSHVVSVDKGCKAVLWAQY
UniProt O95260: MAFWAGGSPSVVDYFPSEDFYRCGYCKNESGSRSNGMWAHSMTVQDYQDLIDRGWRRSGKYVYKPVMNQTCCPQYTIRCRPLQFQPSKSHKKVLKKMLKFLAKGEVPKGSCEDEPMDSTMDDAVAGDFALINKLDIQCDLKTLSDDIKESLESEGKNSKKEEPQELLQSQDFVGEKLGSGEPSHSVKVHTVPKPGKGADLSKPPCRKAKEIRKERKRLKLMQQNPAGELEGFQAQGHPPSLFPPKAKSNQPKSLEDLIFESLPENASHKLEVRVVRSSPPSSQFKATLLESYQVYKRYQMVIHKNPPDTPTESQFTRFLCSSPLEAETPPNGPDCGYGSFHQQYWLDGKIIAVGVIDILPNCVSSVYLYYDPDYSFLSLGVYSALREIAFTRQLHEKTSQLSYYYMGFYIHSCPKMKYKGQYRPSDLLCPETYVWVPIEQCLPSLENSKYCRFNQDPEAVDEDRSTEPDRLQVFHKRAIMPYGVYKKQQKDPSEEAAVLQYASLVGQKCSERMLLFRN
UniProt Q8NB49: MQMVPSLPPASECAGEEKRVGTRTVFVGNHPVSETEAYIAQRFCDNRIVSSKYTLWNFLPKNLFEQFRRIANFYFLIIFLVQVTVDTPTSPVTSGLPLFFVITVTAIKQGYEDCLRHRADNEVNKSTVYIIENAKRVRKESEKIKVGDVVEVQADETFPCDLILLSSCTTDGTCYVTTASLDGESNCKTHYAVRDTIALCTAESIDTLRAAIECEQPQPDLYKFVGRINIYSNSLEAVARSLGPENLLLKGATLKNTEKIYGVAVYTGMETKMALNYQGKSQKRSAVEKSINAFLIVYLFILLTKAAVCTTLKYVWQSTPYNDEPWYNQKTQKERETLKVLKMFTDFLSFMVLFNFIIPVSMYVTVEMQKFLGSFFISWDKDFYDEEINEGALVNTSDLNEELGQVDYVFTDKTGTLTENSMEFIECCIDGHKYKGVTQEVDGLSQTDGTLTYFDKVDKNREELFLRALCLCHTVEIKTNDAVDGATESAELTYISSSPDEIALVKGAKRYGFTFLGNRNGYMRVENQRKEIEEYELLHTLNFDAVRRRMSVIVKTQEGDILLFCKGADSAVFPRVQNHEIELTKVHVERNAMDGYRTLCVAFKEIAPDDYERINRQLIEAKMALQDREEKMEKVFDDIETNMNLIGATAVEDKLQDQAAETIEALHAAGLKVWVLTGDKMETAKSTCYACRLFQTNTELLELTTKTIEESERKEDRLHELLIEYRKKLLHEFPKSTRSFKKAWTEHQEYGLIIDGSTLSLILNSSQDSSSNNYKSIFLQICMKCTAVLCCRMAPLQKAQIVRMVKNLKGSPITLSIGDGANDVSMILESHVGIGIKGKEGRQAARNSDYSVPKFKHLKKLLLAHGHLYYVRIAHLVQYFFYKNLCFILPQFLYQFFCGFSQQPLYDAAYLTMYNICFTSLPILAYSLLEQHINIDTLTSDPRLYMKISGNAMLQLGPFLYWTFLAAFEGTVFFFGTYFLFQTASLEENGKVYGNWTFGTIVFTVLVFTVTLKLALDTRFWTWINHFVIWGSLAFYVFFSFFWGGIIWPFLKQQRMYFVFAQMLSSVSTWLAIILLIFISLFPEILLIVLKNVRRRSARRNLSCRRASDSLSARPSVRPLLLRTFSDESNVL
UniProt P38606, whole entry, looked up: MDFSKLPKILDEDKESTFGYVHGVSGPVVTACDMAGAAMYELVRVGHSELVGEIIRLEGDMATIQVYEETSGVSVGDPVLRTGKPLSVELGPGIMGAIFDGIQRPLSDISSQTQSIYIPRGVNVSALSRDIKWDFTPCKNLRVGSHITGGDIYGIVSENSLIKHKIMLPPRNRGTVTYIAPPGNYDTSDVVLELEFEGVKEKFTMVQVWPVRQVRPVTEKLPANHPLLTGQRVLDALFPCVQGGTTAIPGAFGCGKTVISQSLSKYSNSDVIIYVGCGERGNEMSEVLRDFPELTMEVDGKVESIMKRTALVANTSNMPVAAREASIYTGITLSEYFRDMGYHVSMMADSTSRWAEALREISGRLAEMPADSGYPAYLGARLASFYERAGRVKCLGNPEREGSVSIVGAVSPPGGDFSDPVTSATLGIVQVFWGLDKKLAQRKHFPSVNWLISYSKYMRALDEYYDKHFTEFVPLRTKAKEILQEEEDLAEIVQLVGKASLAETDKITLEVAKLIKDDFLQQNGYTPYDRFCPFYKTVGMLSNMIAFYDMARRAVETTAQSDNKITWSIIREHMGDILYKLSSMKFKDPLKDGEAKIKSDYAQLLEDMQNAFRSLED
UniProt Q15904, whole entry, looked up: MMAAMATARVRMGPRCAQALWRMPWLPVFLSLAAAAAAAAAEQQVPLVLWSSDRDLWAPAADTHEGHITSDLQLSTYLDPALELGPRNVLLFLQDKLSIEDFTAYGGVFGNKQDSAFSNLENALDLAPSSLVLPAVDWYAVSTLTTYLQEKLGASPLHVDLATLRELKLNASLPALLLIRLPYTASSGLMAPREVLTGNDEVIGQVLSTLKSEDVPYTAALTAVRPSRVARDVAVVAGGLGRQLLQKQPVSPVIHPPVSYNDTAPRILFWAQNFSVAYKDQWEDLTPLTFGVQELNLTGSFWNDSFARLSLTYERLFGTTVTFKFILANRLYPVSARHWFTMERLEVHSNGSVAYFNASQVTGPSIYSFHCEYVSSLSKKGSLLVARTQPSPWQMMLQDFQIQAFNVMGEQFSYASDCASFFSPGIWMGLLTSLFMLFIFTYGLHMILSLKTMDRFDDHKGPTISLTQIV
UniProt P27449, whole entry, looked up: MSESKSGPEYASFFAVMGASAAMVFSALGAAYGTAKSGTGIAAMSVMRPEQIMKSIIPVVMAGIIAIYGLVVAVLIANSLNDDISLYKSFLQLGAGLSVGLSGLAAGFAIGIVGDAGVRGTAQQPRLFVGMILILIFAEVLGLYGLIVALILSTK

Each target was assayed with Cc1cn(-c2cc(NC(=O)c3ccc(C)c(Nc4nccc(-c5cccnc5)n4)c3)cc(C(F)(F)F)c2)cn1 [nilotinib] (assay: log2 fold change, soluble protein after heating vs DMSO (PISA); higher = thermal stabilisation; K562 lysate, 10 uM; active = over 0.2 and 3.5 SD of the protein, either way, in both replicates (recomputed)).
Summary of the method: (§1)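 Values give the log-two fold change in thermal stability against solvent controls, from duplicates. Crude K562 extract at 1 mg/mL protein, made by dounce homogenisation in PBS pH 7.4 with 1 mM MgCl2, was treated with 10 μM compound for 30 min. After 3 min heating across 48°C-58°C, aliquots were pooled, adjusted to 0.5% NP-40 at 4°C and centrifuged at 21,000xg for 90 min. The supernatant was measured by TMTpro 16plex LC-MS/MS with channel sums equalised.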

log2 fold change, inactive:
ATP5F1B (UniProt H0YI37) 0.162
AVL9 (UniProt Q8NBF6) 0.01
ATF7IP2 (UniProt Q5U623) -0.003
ATP5ME (UniProt P56385) 0.054
ATP5MPL (UniProt P56378) 0.038
ATG2A (UniProt Q2TAZ0) 0.143
ATP5PF isoform 2 (UniProt P18859) 0.059
ATM (UniProt Q13315) -0.019
ATP13A1 (UniProt Q9HD20) 0.009
ATP5F1B (UniProt F8W079) -0.24
ATP1B1 (UniProt P05026) -0.157
B4GALNT1 (UniProt Q00973) -0.056
ATXN7L3 isoform 2 (UniProt Q14CW9) 0.023
NA (UniProt B2RBV5) 0.01
ATG16L1 (UniProt Q676U5) 0.003
ATE1 isoform 2 (UniProt O95260) -0.099
AURKA (UniProt O14965) -0.065
ATP1A1 (UniProt P05023) 0.003
ATP11C (UniProt Q8NB49) -0.003
ATAD3B (UniProt Q5T9A4) -0.017
ATP6V1A (UniProt P38606) 0.007
ATP6AP1 (UniProt Q15904) 0.004

Each target was assayed with Cc1nc(Nc2n[nH]c3c2CN(C(=O)N[C@H](CN(C)C)c2ccccc2)C3(C)C)c2sccc2n1 in the same assay as above.
Summary of the method: as §1

log2 fold change, inactive:
ATP5F1B (UniProt H0YI37) -0.01
AVL9 (UniProt Q8NBF6) 0.006
ATF7IP2 (UniProt Q5U623) 0.008
ATP5ME (UniProt P56385) 0.036
ATP5MPL (UniProt P56378) 0.017
ATG2A (UniProt Q2TAZ0) -0.111
ATP5PF isoform 2 (UniProt P18859) 0.046
ATM (UniProt Q13315) -0.019
ATP13A1 (UniProt Q9HD20) 0.004
ATP5F1B (UniProt F8W079) 0.152
ATP1B1 (UniProt P05026) 0.04
B4GALNT1 (UniProt Q00973) -0.002
ATXN7L3 isoform 2 (UniProt Q14CW9) -0.046
NA (UniProt B2RBV5) -0.025
ATG16L1 (UniProt Q676U5) -0.022
ATE1 isoform 2 (UniProt O95260) -0.006
AURKA (UniProt O14965) 0.209
ATP1A1 (UniProt P05023) -0.007
ATP11C (UniProt Q8NB49) 0.007
ATAD3B (UniProt Q5T9A4) 0.019
ATP6V1A (UniProt P38606) -0.003
ATP6AP1 (UniProt Q15904) 0.001

Each target was assayed with Cc1nc(Nc2ncc(C(=O)Nc3c(C)cccc3Cl)s2)cc(N2CCN(CCO)CC2)n1 [dasatinib] in the same assay as above.
Summary of the method: as §1

log2 fold change, inactive:
ATP5F1B (UniProt H0YI37) -0.036
AVL9 (UniProt Q8NBF6) 0.015
ATP5ME (UniProt P56385) -0.029
ATP11C, A0A067XG54 -0.081
ATP5MPL (UniProt P56378) 0.032
ATP5PF isoform 2 (UniProt P18859) 0.026
ATM (UniProt Q13315) -0.071
ATP13A1 (UniProt Q9HD20) 0.102
B3GNT5 (UniProt Q9BYG0) 0.055
ATRN (UniProt O75882) -0.038
ATP1B1 (UniProt P05026) 0.04
B4GALNT1 (UniProt Q00973) 0.167
ATP1B2 (UniProt P14415) 0.02
ATXN7L3 isoform 2 (UniProt Q14CW9) 0.14
AUH (UniProt Q13825) -0.274
ATG16L1 (UniProt Q676U5) 0.021
ATE1 isoform 2 (UniProt O95260) 0.069
ASXL2 (UniProt Q76L83) 0.017
AURKA (UniProt O14965) 0.226
ATXN2 (UniProt F8WB05) 0.035
ATP6V0A1 (UniProt Q93050) -0.078
ATP1A1 (UniProt P05023) 0.031
ATP11C (UniProt Q8NB49) 0.024
ATP6V0C (UniProt P27449) 0.1
ATAD3B (UniProt Q5T9A4) 0.01
ATP6V1A (UniProt P38606) -0.007
ATP6AP1 (UniProt Q15904) 0.016
